Results as given in patent EP2986720B1, “URICASE MUTANTS” (Council of Scientific & Industrial Research, priority 2013, dated 2014).
At least one read-out could not be matched to a standard name with certainty.

Legend:
[1] = target: T1, Kluyveromyces lactis uricase variant KI F167W, Mutant 2 (SEQ ID NO.3) (Kluyveromyces lactis, UniProt Q6CNP7, F167W); assay: Enzyme kinetic study of uricase (4-AAP/phenol/HRP colour assay, 505 nm); assay type: biochemical; conditions: substrate uric acid, pH 7.0, 35°C
T1 sequence (Q6CNP7 1-308 F167W): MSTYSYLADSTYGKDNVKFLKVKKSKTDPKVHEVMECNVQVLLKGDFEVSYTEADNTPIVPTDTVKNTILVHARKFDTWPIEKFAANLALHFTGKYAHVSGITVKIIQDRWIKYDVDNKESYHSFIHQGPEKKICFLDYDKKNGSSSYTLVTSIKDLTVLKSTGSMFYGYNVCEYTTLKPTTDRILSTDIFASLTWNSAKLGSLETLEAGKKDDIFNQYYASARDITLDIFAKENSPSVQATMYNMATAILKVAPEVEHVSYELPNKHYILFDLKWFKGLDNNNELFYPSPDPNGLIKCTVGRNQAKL
Procedure: (§1) Enzymatic assay of uricase: Substrate mixture contains • a. 2.2 ml of 2 mM Uric acid • b. 0.15 ml of 60 mM 4-Aminoantipyrine (4-AAP) • c. 0.15 ml of 1.5% Phenol • d. 0.15 ml of 20 U/ml Horseradish peroxidase (HRP) • e. 0.1 M respective buffer to make up to 3 ml • a. Uricase added to the above mixture and incubated at 25°C for 20 min. The colour is measured at 505 nm (Chen, Wang et al. 2008). • b. The reaction mix was set for 300 µl rather than 3 ml for convenient measuring in BiotekPowerwave X Elisa plate reader. The amounts of the solutions added in the assay mix were calculated accordingly for 300 µl.
(§2) The kinetics of the uricases was studied to evaluate the efficiency of the enzymes. The kinetic parameters of the uricases of all the species were determined at their respective optimum pH and optimum temperatures. The substrate (uric acid) was added in increasing concentrations ranging from 10 to 600 µM (10, 20, 40, 80, 100, 200, 300, 400, 500, and 600) in triplicates. The assay reagents for the kinetic studies were added in 96 well plates in triplicates in the buffer of pH 7.0 and incubated at 35°C. Equal amounts of enzyme were added and immediately readings were taken at 505 nm. Around 30 readings were taken at the interval of 1min. The readings at a particular time point were taken for further steady state kinetic study of uricases. The KM and Vmax values were determined from Michaelis-Menten saturation curve by the non-linear curve fit (ORIGIN 7.5). kcat and kcat/KM values were also calculated (table 5). Table 5: Kinetic properties of the uricases of this invention

[2] = target: T2, Kluyveromyces lactis uricase variant KI T62S, Mutant 1 (SEQ ID NO.2) (Kluyveromyces lactis, UniProt Q6CNP7, T62S); assay: as above; assay type: biochemical; conditions: substrate uric acid, pH 7.0, 35°C
T2 sequence (Q6CNP7 1-308 T62S): T1 sequence (Q6CNP7 1-308 F167W)
Procedure: as §1, §2

In the case of `O=c1[nH]c(=O)c2[nH]c(=O)[nH]c2[nH]1` [uric acid], the kcat/KM ([1]; Table 1 and text) is reported as 8600 M⁻¹ s⁻¹, the Kcat/Km ([1]; Table 5) is reported as 8600 M⁻¹ s⁻¹ and the kcat/KM ([2]; Table 1 and text) is reported as 14700 M⁻¹ s⁻¹. The Kcat/Km ([2]; Table 5) was 14700 M⁻¹ s⁻¹.
